One molecule from patent publication US20180215829A1 can be followed below.

The assay has as its target T1, recombinant human IL-17RA Fc fusion protein (R&D Systems 177-IR-100) (human) (UniProt Q96F46).
T1 sequence: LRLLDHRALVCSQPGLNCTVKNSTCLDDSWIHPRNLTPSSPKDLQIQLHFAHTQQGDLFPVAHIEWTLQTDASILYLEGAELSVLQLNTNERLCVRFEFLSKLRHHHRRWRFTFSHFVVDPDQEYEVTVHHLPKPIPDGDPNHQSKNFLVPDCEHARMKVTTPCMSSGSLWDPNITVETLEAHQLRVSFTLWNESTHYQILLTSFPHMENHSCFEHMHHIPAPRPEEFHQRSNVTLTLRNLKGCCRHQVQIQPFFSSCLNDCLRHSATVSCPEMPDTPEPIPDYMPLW
Kind of assay: specificity ELISA (FIG. 14). (In general: ELISA stands for enzyme-linked immunosorbent assay.)

Results are given in words; binding and its absence hold for the method and conditions named. Some entries that bind do so weakly or less than the wild type. Tags and fused reporters may be left off the sequences shown.

B1: VH 62A4 (VHH)
VHH: QVQLVESGGGLVQPGRSLTLSCTASGFTFHDYAMHWVRQPPGGGLEWVAGVSWNGNNVGYADSVKGRFTISRDNAKKSLYLQMNSLRSEDTALYYCAKGGMGSGSHPDSFSTWGQGTMVTVSS
For the molecule B1, the binding result was “binds”.
